PubChem BioAssay AID1259254 – NCATS – 2017
The deposit covers about 59,000 reagents; below is a random part of them. Of all reagents, about 1,550 (2.6%) got an active call. 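G2 share is only a proxy for re-replication; each gene was hit by three separate siRNAs, and active genes were retested.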 Reagents against one gene are numbered here. Further read-outs or replicates are left out here. Reagent sequences are not shown. The record does not give: the amount of reagent.

Screen: 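Genome-wide screen for genes that prevent DNA re-replication in cancer cells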 (primary screen)
System: human HCT116 colorectal cancer cells
Knock-down reagent: single siRNA against human genes
Duration: 3 days
Measured: 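Imaged Hoechst DNA stain sorts each cell into a cycle phase by DNA amount; per plate, G2 fraction set to 0% for non-targeting and 100% for GMNN siRNA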
Direction: G2 robust z-score and G2 cells, % of GMNN control: higher = more G2 cells, more excess DNA replication
Rule for the call: 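Active siRNAs have a G2 robust z of 5 or more median absolute deviations over the median, which in these data means about 38% or higher of GMNN control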

| gene | siRNA no. | G2 robust z-score | G2 cells, % of GMNN control | activity call |
| --- | --- | --- | --- | --- |
| CSNK1G2 | 1 | 0.195 | 4.34 | inactive |
| CSNK1G2 | 2 | 0.429 | 5.98 | inactive |
| CSNK1G2 | 3 | 0.801 | 8.6 | inactive |
| GRM5 | 1 | -0.554 | -0.931 | inactive |
| GRM5 | 2 | 2.83 | 22.9 | inactive |
| GRM5 | 3 | -0.172 | 1.76 | inactive |
| SIGLEC10 | 1 | -0.0443 | 2.66 | inactive |
| SIGLEC10 | 2 | -0.93 | -3.57 | inactive |
| SIGLEC10 | 3 | -0.251 | 1.2 | inactive |
| MCHR1 | 1 | -0.326 | 0.671 | inactive |
| MCHR1 | 2 | 0.0302 | 3.18 | inactive |
| MCHR1 | 3 | 0.587 | 7.1 | inactive |
| TMEM260 | 1 | 1.4 | 12.9 | inactive |
| TMEM260 | 2 | 0.0495 | 3.32 | inactive |
| TMEM260 | 3 | 2.26 | 18.9 | inactive |
| FSD1L | 1 | -0.984 | -3.95 | inactive |
| FSD1L | 2 | -0.787 | -2.57 | inactive |
| FSD1L | 3 | -0.873 | -3.18 | inactive |
| EPSTI1 | 1 | 2.98 | 23.9 | inactive |
| EPSTI1 | 2 | -0.745 | -2.27 | inactive |
| EPSTI1 | 3 | -0.67 | -1.75 | inactive |
| MRAP | 1 | 1.51 | 13.6 | inactive |
| MRAP | 2 | 0.0377 | 3.23 | inactive |
| MRAP | 3 | -0.35 | 0.504 | inactive |
| ZNF321P | 1 | 0.11 | 3.74 | inactive |
| ZNF321P | 2 | 1.34 | 12.4 | inactive |
| ZNF321P | 3 | 4.92 | 37.6 | inactive |
| PABPC3 | 1 | 1.2 | 11.4 | inactive |
| PABPC3 | 2 | 0.477 | 6.32 | inactive |
| PABPC3 | 3 | -0.743 | -2.26 | inactive |
| SLC4A1AP | 1 | 0.374 | 5.6 | inactive |
| SLC4A1AP | 2 | -0.5 | -0.548 | inactive |
| SLC4A1AP | 3 | 2.25 | 18.8 | inactive |
| HSBP1L1 | 1 | -0.447 | -0.178 | inactive |
| HSBP1L1 | 2 | -1.04 | -4.34 | inactive |
| HSBP1L1 | 3 | 1.04 | 10.3 | inactive |
| CFAP45 | 1 | 3.41 | 27 | inactive |
| CFAP45 | 2 | 0.228 | 4.57 | inactive |
| CFAP45 | 3 | 1.92 | 16.5 | inactive |
| MKI67 | 1 | -0.196 | 1.59 | inactive |
| MKI67 | 2 | -0.697 | -1.94 | inactive |
| MKI67 | 3 | -0.396 | 0.18 | inactive |
| ING5 | 1 | 0.374 | 5.6 | inactive |
| ING5 | 2 | -0.326 | 0.675 | inactive |
| ING5 | 3 | -0.503 | -0.569 | inactive |
| XRCC1 | 1 | 0.124 | 3.84 | inactive |
| XRCC1 | 2 | -0.825 | -2.84 | inactive |
| XRCC1 | 3 | -0.422 | 0.00118 | inactive |
| NGFR | 1 | 1.06 | 10.4 | inactive |
| NGFR | 2 | 5.1 | 38.8 | active |
| NGFR | 3 | -0.882 | -3.24 | inactive |
| ASF1A | 1 | -0.629 | -1.46 | inactive |
| ASF1A | 2 | 1.7 | 14.9 | inactive |
| ASF1A | 3 | 2 | 17 | inactive |
| CDK5R2 | 1 | -0.237 | 1.3 | inactive |
| CDK5R2 | 2 | -0.812 | -2.75 | inactive |
| CDK5R2 | 3 | -1.51 | -7.68 | inactive |
| DDIT4 | 1 | -1.13 | -5.02 | inactive |
| DDIT4 | 2 | 0.859 | 9.01 | inactive |
| DDIT4 | 3 | 7.21 | 53.7 | active |
| FBLN7 | 1 | -1.08 | -4.61 | inactive |
| FBLN7 | 2 | -0.315 | 0.75 | inactive |
| FBLN7 | 3 | -0.149 | 1.92 | inactive |
| HES6 | 1 | 0.252 | 4.74 | inactive |
| HES6 | 2 | -0.999 | -4.06 | inactive |
| HES6 | 3 | -0.951 | -3.72 | inactive |
| SLC25A22 | 1 | 1.28 | 11.9 | inactive |
| SLC25A22 | 2 | 5.71 | 43.1 | active |
| SLC25A22 | 3 | -0.569 | -1.03 | inactive |

Just “G2 cells, % of GMNN control” (10 entries from above):
HSBP1L1 #3 = 10.3
CFAP45 #1 = 27
CFAP45 #2 = 4.57
CFAP45 #3 = 16.5
MKI67 #1 = 1.59
MKI67 #2 = -1.94
MKI67 #3 = 0.18
ING5 #1 = 5.6
ING5 #2 = 0.675
ING5 #3 = -0.569
